Experimental data published in doi:10.1101/2024.04.19.590371 (bioRxiv, 2024).
Results are given in words; binding and its absence hold for the method and conditions named. Sequences can lack the tags named with a protein.

T1: GST-OM64 (cytosolic domain, aa 488-586) (Arabidopsis thaliana) (UniProt F4KCL7)
T1 sequence: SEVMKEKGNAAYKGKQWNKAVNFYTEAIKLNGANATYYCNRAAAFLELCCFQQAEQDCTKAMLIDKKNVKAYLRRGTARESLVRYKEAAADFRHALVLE

T2: GST-Tom9.2 (cytosolic domain, aa 1-53) (Arabidopsis thaliana) (UniProt Q9FNC9)
T2 sequence: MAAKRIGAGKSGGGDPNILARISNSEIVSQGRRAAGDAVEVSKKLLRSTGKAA


Tests used:
[1] = biological target: T1, GST-OM64 (cytosolic domain, aa 488-586) (Arabidopsis thaliana); experiment: pull-down
[2] = biological target: T2, GST-Tom9.2 (cytosolic domain, aa 1-53) (Arabidopsis thaliana); experiment: pull-down

Row | binding [1] | binding [2] | Binder
1 | no binding |  | His+SUMO-atDjA1 (protein, UniProt Q94AW8 1-420) MFGRGPSKKSDNTKFYEILGVPKSASPEDLKKAYKKAAIKNHPDKGGDPEKFKELAQAYEVLSDPEKREIYDQYGEDALKEGMGGGGGGHDPFDIFSSFFGGGPFGGNTSRQRRQRRGEDVVHPLKVSLEDVYLGTMKKLSLSRNALCSKCNGKGSKSGASLKCGGCQGSGMKVSIRQLGPGMIQQMQHACNECKGTGETINDRDRCPQCKGDKVIPEKKVLEVNVEKGMQHSQKITFEGQADEAPDTVTGDIVFVLQQKEHPKFKRKGEDLFVEHTLSLTEALCGFQFVLTHLDGRSLLIKSNPGEVVKPDSYKAISDEGMPIYQRPFMKGKLYIHFTVEFPDSLSPDQTKALEAVLPKPSTAQLSDMEIDECEETTLHDVNIEDEMRRKAQAQREAYDDDDEDDDHPGGAQRVQCAQQ
2 |  | no binding | His+SUMO-atDjA2 (protein, UniProt P42825 1-419) MFGRGPSRKSDNTKFYEILGVPKTAAPEDLKKAYKKAAIKNHPDKGGDPEKFKELAQAYEVLSDPEKREIYDQYGEDALKEGMGGGGGGHDPFDIFSSFFGSGGHPFGSHSRGRRQRRGEDVVHPLKVSLEDVYLGTTKKLSLSRKALCSKCNGKGSKSGASMKCGGCQGSGMKISIRQFGPGMMQQVQHACNDCKGTGETINDRDRCPQCKGEKVVSEKKVLEVNVEKGMQHNQKITFSGQADEAPDTVTGDIVFVIQQKEHPKFKRKGEDLFVEHTISLTEALCGFQFVLTHLDKRQLLIKSKPGEVVKPDSYKAISDEGMPIYQRPFMKGKLYIHFTVEFPESLSPDQTKAIEAVLPKPTKAAISDMEIDDCEETTLHDVNIEDEMKRKAQAQREAYDDDEEDHPGGAQRVQCAQQ
